# Measurements published in PubChem BioAssay AID651784 (National Center for Advancing Translational Sciences (NCATS), 2012).
# The inconclusive results got no clear call from the source; some entries with a clear call stand among them for comparison. Where the call is inconclusive, the potency comes from a doubtful curve fit. Calls of active or inactive are those of the source. Calls come from the whole dose curve; as a rule, active = well fitted inhibition curve with a large enough effect; inconclusive = small, poorly fitted or top-dose-only effect; inactive = no such curve, though single readings can be large or run the other way.
# Test: Acumen qHTS Assay for Inhibitors of the mTORC1 Signaling Pathway in MEF (Tsc2-/-, p53-/-) Cells: Hit Validation;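 note: phospho-rpS6 Ser235/236 immunofluorescence normalized to propidium iodide cell count; nearly all actives have a fitted effect of over 65% in size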
# Settings: Acumen imaging
# Potency is the fitted concentration of half-maximal effect.
row,SMILES,Potency
1,CC(=O)C1=C(c2ccccc2)N(C(C)=O)n2c(nnc2C2CCCCC2)S1,active: 7.36 µM
2,CC(C)N(C(=O)Cn1cc(S(=O)(=O)Cc2ccc(Cl)cc2)c2ccccc21)C(C)C,"inconclusive: 20.7 µM [inhibitor, single point]"
3,CCOC(=O)c1cnc2ccc(C)cc2c1Nc1ccc(N(CC)CC)cc1,"inconclusive: 18.5 µM [inhibitor, single point]"
4,CCOC(=O)N1CCN(Cc2nc3cc(NC(=O)C(C)C)ccc3n2C(C)C)CC1,"inconclusive: 3.29 µM [inhibitor, full curve]"
5,Cc1ccc(NC(=O)NCC2CCN(Cc3cccc(Cl)c3)CC2)cc1Cl,"inconclusive: 23.3 µM [inhibitor, single point]"
6,O=C(Nc1ccc2oc(-c3ccc4ccccc4c3)nc2c1)c1cc(Br)ccc1Cl,active: 9.27 µM
7,CC(CNC(=O)c1ccc(Nc2nc3ccccc3n3nnnc23)cc1)c1ccccc1 (stereo unspecified),"inconclusive: 26.1 µM [inhibitor, single point]"
8,CC(C)Oc1cccc(C2CC(=O)Nc3cc4c(cc32)OCO4)c1 (stereo unspecified),"inconclusive: 9.27 µM [inhibitor, partial curve]"
9,COC(=O)c1ccc(NC(=O)c2nc(-c3ccc(Cl)cc3)n3c2CCCCC3)cc1,"inconclusive: 0.0369 µM [inhibitor, full curve, poor fit]"
10,Cc1ccc(OCC(O)Cn2c(=N)n(CCN3CCCCC3)c3ccccc32)cc1 (stereo unspecified),active: 10.4 µM
11,CCc1nnc(NC(=O)c2nc(S(=O)(=O)Cc3cccc(C)c3)ncc2Cl)s1,"inconclusive: 5.85 µM [inhibitor, partial curve, poor fit]"

# Retrieved by structure from above (2):
row,SMILES,Potency
4,CCOC(=O)N1CCN(Cc2nc3cc(NC(=O)C(C)C)ccc3n2C(C)C)CC1,"inconclusive: 3.29 µM [inhibitor, full curve]"
5,Cc1ccc(NC(=O)NCC2CCN(Cc3cccc(Cl)c3)CC2)cc1Cl,"inconclusive: 23.3 µM [inhibitor, single point]"
